This passage reports binding results from article PMC11383184.

The chains behind the UniProt entries cited, without tags or fusion partners. Residues count along the entry.
UniProt P09103, residues 20-509: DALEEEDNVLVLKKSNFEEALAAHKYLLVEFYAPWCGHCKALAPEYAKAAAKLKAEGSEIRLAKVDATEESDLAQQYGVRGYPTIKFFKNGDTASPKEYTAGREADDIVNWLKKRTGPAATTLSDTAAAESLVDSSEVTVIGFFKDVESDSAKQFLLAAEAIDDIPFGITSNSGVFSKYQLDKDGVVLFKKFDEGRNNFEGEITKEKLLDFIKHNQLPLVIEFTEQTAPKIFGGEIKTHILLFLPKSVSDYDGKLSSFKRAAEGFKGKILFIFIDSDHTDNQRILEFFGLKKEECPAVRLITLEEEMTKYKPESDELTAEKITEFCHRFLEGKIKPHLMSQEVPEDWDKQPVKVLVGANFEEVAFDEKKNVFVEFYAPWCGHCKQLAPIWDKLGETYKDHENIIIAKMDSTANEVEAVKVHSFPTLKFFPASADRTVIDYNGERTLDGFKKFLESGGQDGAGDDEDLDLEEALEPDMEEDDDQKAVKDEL

Results are given in words; binding and its absence hold for the method and conditions named. In cells and extracts the contact can be indirect. Some binding calls cover weakened binding; strength is not graded here.

The assay has as its target protein disulfide isomerase (mouse (endogenous in testes)) (UniProt P09103). Briefly: co-IP; anti-PDI antibody added to testes lysates of WT mice overnight at 4°C, protein G beads 2 hours, washed 3 times with lysis buffer (20 mM Tris-HCl, 150 mM NaCl pH 7.4, 1% Triton X-100, 1 mM EDTA, 0.5% sodium deoxycholate); partners detected by Western blotting. (In general: A western blot detects proteins with antibodies after separation by electrophoresis.)

B1: SHCBP1L (protein, UniProt Q3TTP0 1-639)
chain: MESDATTSEPKASVGSDSSPAEQTVLATLRDSVAAPTRGFMSPVRSVVASPRPVKGKAARRRLQLPPVTQAETCDEEPVPAVPEDQEEAQPLPPIYASPMRGMWRSEKVALYCDQVLQGSKAEDAEEAMSRYLLEKLKAKDRWLGVWKSNPELFFEKYEEASIPFVGILVEVTCKPRQNLSSCFKVTVSVAEPFSSNIANIPRDLVDEVLGELEYSAPLLEVYPVDGQDADVRDIALALEVVRFFYDFLWRDWDDEENCENYTALIEERINLWCDIQDGTIPGPIAQRFKKTLEKYKNKRVELIEYQSNIKEDPSAAEAVECWKKYYEIVMLCGLLKMWEDLRLRVHGPFFPRILRRRKGKRDFGKTITHIVAKVMTTDMVKNLSSDTLLQQHNDLNLALDSCYSGDIVVIFPGEYQASNLALLTDDITIKGVGKREEIMITSEPSHDSFVVSKADNVKLMQLSLIQQGTVDGIVVVESGHLTLENCLLKCEGTGVCVLTGASLTITNSEITGAQGAGVELYPGSIAILEGNEIHHCNNLRTSDSSKSTLGGVNMKVLPAPKLKMTNNHIYNNNGYGVSILQPSEQFFIVAEAALNKGAASGDKKDDKMLSKVMQTLNVEMNNNRIEANLKGDIRIVTG
In the case of B1, the binding result was “binds”.

B2: DDX4 (protein, UniProt Q61496 1-702)
chain: MGDEDWEAEILKPHVSSYVPVFEKDKYSSGANGDTFNRTSASSDIGESSKKENTSTTGGFGRGKGFGNRGFLNNKFEEGDSSGFWKESNNDCEDNQTRSRGFSKRGGCQDGNDSEASGPFRRGGRGSFRGCRGGFGLGRPNSESDQDQGTQRGGGLFGSRKPAASDSGNGDTYQSRSGSGRGGYKGLNEEVVTGSGKNSWKSETEGGESSDSQGPKVTYIPPPPPEDEDSIFAHYQTGINFDKYDTILVEVSGHDAPPAILTFEEANLCQTLNNNIAKAGYTKLTPVQKYSIPIVLAGRDLMACAQTGSGKTAAFLLPILAHMMRDGITASRFKELQEPECIIVAPTRELINQIYLEARKFSFGTCVRAVVIYGGTQFGHSVRQIVQGCNILCATPGRLMDIIGKEKIGLKQVKYLVLDEADRMLDMGFGPEMKKLISCPGMPSKEQRQTLLFSATFPEEIQRLAGDFLKSSYLFVAVGQVGGACRDVQQTILQVGQYSKREKLVEILRNIGDERTMVFVETKKKADFIATFLCQEKISTTSIHGDREQREREQALGDFRCGKCPVLVATSVAARGLDIENVQHVINFDLPSTIDEYVHRIGRTGRCGNTGRAISFFDTDSDNHLAQPLVKVLSDAQQDVPAWLEEIAFSTYVPPSFSSSTRGGAVFASVDTRKNYQGKHTLNTAGISSSQAPNPVDDESWD
As to B2, the binding entry is listed as “binds”.
